Experimental findings from publication PMC4480967 are described below.

By UniProt entry, the sequences of proteins in these tests, tags left out. Residues count along the entry.
UniProt P22290, residues 211-525: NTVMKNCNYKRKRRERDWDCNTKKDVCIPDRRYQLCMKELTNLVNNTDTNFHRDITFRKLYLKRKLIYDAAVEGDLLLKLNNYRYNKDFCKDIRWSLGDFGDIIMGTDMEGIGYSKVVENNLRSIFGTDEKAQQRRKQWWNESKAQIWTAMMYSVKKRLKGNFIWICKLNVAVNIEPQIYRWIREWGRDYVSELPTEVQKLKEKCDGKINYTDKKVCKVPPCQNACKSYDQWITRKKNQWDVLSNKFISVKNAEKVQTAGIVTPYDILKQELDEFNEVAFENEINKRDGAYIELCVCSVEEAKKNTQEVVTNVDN

In experiment [1] the target is Plasmodium vivax Duffy binding protein region II (Sal-1), expressed on the surface of COS-7 cells (Plasmodium vivax (Sal-1)) (UniProt P22290). The experiment is described as follows: erythrocyte-binding (rosetting) assay on transfected COS-7 cells; data not shown; human erythrocytes on COS cells expressing PvDBPII, number of rosettes.
Experiment [2] shares this target. The experiment is described as follows: inhibition of erythrocyte binding (rosetting) to transfected COS-7 cells; monkey sera at 1:30 for 1 h at 37°C, then human O+ DARC-positive erythrocytes (10% suspension, 200 uL/well) for 2 h at room temperature, washed with PBS, rosettes counted.

No constants are given. Whether binding was seen depends on the method and setting. Some binding calls cover weakened binding; strength is not graded here.

B1: human Duffy antigen receptor for chemokines, on erythrocytes (receptor, UniProt Q16570 1-336)
chain: MGNCLHRAELSPSTENSSQLDFEDVWNSSYGVNDSFPDGDYGANLEAAAPCHSCNLLDDSALPFFILTSVLGILASSTVLFMLFRPLFRWQLCPGWPVLAQLAVGSALFSIVVPVLAPGLGSTRSSALCSLGYCVWYGSAFAQALLLGCHASLGHRLGAGQVPGLTLGLTVGIWGVAALLTLPVTLASGASGGLCTLIYSTELKALQATHTVACLAIFVLLPLGLFGAKGLKKALGMGPGPWMNILWAWFIFWWPHGVVLGLDFLVRSKLLLLSTCLAQQALDLLLNLAEALAILHCVATPLLLALFCHQATRTLLPSLPLPEGWSSHLDTLGSKS
B1: the binding entry in experiment [1] and in experiment [2] was “binds” in each case.
